From PMC11054780
Results are given in words; binding and its absence hold for the method and conditions named. Some results given as binding are weak or reduced against the parent protein; the word gives no strength.

Amino acid sequences for entries named in this document (tags omitted). A change or cut given only in a name is not applied to a line headed by its entry. Residues count along the entry.
UniProt P25108: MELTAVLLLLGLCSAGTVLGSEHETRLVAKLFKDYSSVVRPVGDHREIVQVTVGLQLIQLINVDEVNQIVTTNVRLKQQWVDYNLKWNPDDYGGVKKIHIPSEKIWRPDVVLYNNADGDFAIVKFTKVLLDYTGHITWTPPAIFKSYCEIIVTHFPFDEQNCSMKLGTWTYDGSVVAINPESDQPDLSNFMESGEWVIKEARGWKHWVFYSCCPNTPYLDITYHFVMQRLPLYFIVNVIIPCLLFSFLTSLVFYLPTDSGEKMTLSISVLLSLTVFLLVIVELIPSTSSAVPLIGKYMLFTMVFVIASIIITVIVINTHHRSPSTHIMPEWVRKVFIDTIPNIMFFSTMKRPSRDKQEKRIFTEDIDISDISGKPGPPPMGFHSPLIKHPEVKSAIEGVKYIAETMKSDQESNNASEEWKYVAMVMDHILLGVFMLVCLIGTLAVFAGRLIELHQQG
UniProt P60615, residues 22-95: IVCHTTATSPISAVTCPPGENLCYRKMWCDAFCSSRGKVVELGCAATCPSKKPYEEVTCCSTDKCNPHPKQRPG

Molecular target: nAChR in rat neonatal skeletal muscle cell membranes (rat (endogenous in primary skeletal muscle cells of neonatal rats)) (UniProt P25108)
Assay: radioligand binding; […]; 20 mM Tris-HCl pH 7.4, 10 mM EDTA, 150 mM NaCl, 0.2 mg/mL BSA; […]; only the binder purified

Substance: α-Bungarotoxin (from UniProt P60615 22-95)
- binding: binds
